# No constants are given. Whether binding was seen depends on the method and setting. For some assays here: Binding seen in cells or lysates may run through a third protein. Some binding calls cover weakened binding; strength is not graded here. For some assays here: Sequences can lack the tags named with a protein.
# The chains behind the UniProt entries cited, without tags or fusion partners. Residues count along the entry.
# UniProt P43297, residues 22-462: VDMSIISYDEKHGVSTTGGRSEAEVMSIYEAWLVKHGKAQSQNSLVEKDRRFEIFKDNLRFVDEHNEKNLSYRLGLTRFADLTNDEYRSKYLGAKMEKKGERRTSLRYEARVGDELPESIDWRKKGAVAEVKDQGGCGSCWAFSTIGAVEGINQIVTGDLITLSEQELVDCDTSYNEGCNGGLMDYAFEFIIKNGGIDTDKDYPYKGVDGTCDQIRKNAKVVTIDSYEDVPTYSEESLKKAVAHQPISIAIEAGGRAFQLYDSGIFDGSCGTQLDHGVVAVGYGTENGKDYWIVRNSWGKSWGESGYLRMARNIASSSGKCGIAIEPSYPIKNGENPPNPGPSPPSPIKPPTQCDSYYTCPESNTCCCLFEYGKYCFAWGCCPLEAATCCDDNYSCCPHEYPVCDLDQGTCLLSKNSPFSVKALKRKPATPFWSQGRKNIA
# T1: Protein Disulfide Isomerase5 (PDI5) (Arabidopsis) (UniProt Q9XI01)
# T1 sequence: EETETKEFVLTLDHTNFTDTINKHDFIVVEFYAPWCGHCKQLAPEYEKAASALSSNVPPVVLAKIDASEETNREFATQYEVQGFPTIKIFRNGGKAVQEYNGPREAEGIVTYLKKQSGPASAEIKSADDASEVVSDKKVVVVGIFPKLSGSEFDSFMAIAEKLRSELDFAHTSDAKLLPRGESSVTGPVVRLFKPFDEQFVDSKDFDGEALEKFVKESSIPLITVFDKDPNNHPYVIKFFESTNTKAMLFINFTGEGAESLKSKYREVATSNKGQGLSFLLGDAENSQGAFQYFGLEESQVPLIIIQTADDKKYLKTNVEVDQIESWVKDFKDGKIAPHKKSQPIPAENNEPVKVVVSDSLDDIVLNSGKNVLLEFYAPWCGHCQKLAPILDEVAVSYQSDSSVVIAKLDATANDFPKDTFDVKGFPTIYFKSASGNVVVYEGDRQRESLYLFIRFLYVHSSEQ
# T2: AFL1 N-terminal fragment (amino acids 1 to 208) (Arabidopsis) (UniProt Q9LHD9)
# T2 sequence: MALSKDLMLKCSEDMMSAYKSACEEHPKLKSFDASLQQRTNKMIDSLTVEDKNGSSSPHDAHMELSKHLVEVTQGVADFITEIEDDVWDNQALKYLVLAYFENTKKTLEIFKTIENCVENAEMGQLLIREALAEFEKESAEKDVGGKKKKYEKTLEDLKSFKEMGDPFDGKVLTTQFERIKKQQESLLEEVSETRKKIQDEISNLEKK
# T3: YFP-AFL1 (Arabidopsis) (UniProt Q9LHD9)
# T3 sequence: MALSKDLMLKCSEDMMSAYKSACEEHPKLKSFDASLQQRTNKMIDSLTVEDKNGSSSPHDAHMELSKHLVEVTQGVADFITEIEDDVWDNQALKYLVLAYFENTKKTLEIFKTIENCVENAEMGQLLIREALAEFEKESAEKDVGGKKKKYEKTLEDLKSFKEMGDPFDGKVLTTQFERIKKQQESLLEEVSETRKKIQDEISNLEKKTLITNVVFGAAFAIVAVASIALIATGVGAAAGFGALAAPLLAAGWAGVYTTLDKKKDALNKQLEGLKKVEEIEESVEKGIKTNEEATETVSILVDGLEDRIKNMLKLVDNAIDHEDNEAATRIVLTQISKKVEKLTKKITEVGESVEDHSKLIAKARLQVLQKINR
# B1: partial cDNA clones containing the C-terminal domain of AFL1 but not the two predicted helices (protein)
# chain: VYTTLDKKKDALNKQLEGLKKVEEIEESVEKGIKTNEEATETVSILVDGLEDRIKNMLKLVDNAIDHEDNEAATRIVLTQISKKVEKLTKKITEVGESVEDHSKLIAKARLQVLQKINR
# B2: C-terminal clones of At14a (protein)
# chain: GVHTILENKIQAREKQEEALKKAHRIANEMDKGMETDKVDMNSISGKVHALKSKITSMLNAVKDATEDGANEVDTKQVMETLTGDVVELTEDIKAVGDDVAKYSKMIEETSYHVLQKITGSGK
# B3: Protein Disulfide Isomerase5 (PDI5) (enzyme)
# chain: T1 sequence
# B4: PDI5-FLAG (enzyme, not shown: small tags and cut ends)
# chain: T1 sequence
# Tests used:
# [1] = target: T1, Protein Disulfide Isomerase5 (PDI5) (Arabidopsis); experiment: BiFC in seedlings
# [2] = target: T2, AFL1 N-terminal fragment (amino acids 1 to 208) (Arabidopsis); experiment: yeast two hybrid library screen (AFL1 N-terminus)
# [3] = target: T2, AFL1 N-terminal fragment (amino acids 1 to 208) (Arabidopsis); experiment: yeast two hybrid library screen
# [4] = target: T2, AFL1 N-terminal fragment (amino acids 1 to 208) (Arabidopsis); experiment: protein interaction data (yeast two hybrid)
# [5] = target: T2, AFL1 N-terminal fragment (amino acids 1 to 208) (Arabidopsis); experiment: yeast two hybrid, beta-galactosidase filter assay, full-length prey
# YFP-AFL1 (Arabidopsis) [6] = target: T3, YFP-AFL1 (Arabidopsis); experiment: Co-IP (GFP-trap pull-down of YFP-AFL1, immunoblot)
# YFP-AFL1 (Arabidopsis) [7] = target: T3, YFP-AFL1 (Arabidopsis); experiment: Co-IP (FIG. 3 panel C)
# YFP-AFL1 (Arabidopsis) [8] = target: T3, YFP-AFL1 (Arabidopsis); experiment: Co-IP of PDI5-FLAG with YFP-AFL1
molecule,measurement,setting,value
RD21 (from UniProt P43297 22-462) (enzyme),binding,[1],binds
B1,binding,[2],binds
same,binding,[3],binds
same,binding,[4],binds
B2,binding,[2],binds
B3,binding,[5],binds
same,binding,[2],binds
same,binding,[3],binds
B4,binding,YFP-AFL1 (Arabidopsis) [6],binds
same,binding,YFP-AFL1 (Arabidopsis) [7],binds
same,binding,YFP-AFL1 (Arabidopsis) [8],binds

# From patent US20160090605A1 (ACADEMIA SINICA, published 2016)
